# Reference: PubChem BioAssay (NCATS)
# This is one part of the list. The main result of the screen is listed elsewhere. These columns were measured beside it and carry no call. Compounds called inactive in the main read-out are mostly missing here. For some of these results: Words in brackets tell the shape of the fitted curve; partial curves, single points and poor fits give uncertain potencies.
# Legend:
# [1] = A High-Content qHTS Against Drug Library for the Identification of Small Molecules that Inhibit DYT1 Early Onset Primary Dystonia-Associated Cell Pathology (AID 1645839); details: HEK293 Flp-In EGFP-delE TorsinA, punctate imaging, 48 h; measured here: cell count cytotoxicity
# How it was run: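 In this high-content image screen, delE TorsinA mislocalization in inducible Flp-In 293 cells is scored as %pathology, with cell count serving as the counterscreen. Compound exposure lasts 48 h under tetracycline induction in reduced-serum medium.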
# [2] = qHTS Assay for Inhibitors of PDE-IV (AID 607); details: HEK293 ACTOne CNG channel cells, membrane potential fluorescence; measured here: parental cell counter-screen
# How it was run: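 Live HEK293 cells with a modified cyclic nucleotide-gated (CNG) channel report intracellular cAMP via membrane-potential dye fluorescence (ex 535/em 590 nm). Endogenous PDE-IV was targeted. Compounds were tested at up to 22.9 uM final; RO 20-1724 100 uM served as control.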
# [3] = qHTS Assay for Lipid Storage Modulators (AID 1519); details: Drosophila S3 cells, BODIPY lipid droplet/cell ratio, laser cytometry, cells loaded with oleic acid
# How it was run: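 Cells seeded at 5,000 per well were treated with compounds over a concentration series and loaded with oleic acid (400 uM, as added). Lipid droplet fluorescence (488 nm excitation, 500-530 nm channel) was read by laser-scanning cytometry and normalized to 20 uM Triacsin C.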
# [4] = qHTS assay for small molecule antagonists of peroxisome proliferator-activated receptor delta signaling (AID 588535); details: HEK293T PPARd-UAS-bla, beta-lactamase FRET ratio, 18 h; 460 nm channel;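 also: cells co-treated with a PPAR-delta agonist as stimulator during compound exposure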
# How it was run: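 Cell-based beta-lactamase assay in antagonist mode: 4000 HEK293T PPAR-delta-UAS-bla cells per well, 5 hr preincubation then 18 hr compound incubation at 37 C. IC50 obtained by Hill equation fitting.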
# [5] = qHTS assay for small molecule antagonists of retinoid X receptor alpha signaling (AID 588546); details: HEK293T RXRa-UAS-bla, beta-lactamase ratio, antagonist mode; measured here: W530 green channel, cytotoxicity proxy;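 also: cells stimulated with 9-cis-retinoic acid as agonist; % is scaled to controls: 0 for no effect and ±100 for the full control effect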
# How it was run: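 Beta-lactamase reporter inhibition, read as CCF4 fluorescence ratio (ex 405, em 460/530 nm) after 2 h at RT. HEK293T UAS-bla cells, 2500/well, were stimulated with 9-cis-RA at 500 or 100 nM final alongside test compound for 18 h at 37 C.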
# [6] = S16 Schwann cell PMP22 intronic element beta-lactamase assay (AID 624044); details: S16 rat Schwann cells, PMP22 element beta-lactamase FRET, 24 h
# How it was run: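 Rat S16 Schwann cells with beta-Lac driven by a PMP22 intronic element, compound-treated 24 h at 37 °C. LiveBLAzer FRET B/G read: 460 nm normalized to potassium clavulanate vs DMSO; 535 nm FRET as viability; concentration-effect curves classified.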
# [7] = Nrf2 qHTS screen for inhibitors: Validation (AID 493153); details: A549 ARE-Fluc reporter, 18-24 h; AC50: CellTiter-Fluor fluorescence read, measured here: cytotoxicity CellTiter-Fluor AC50; viability change: measured here: cytotoxicity max response
# How it was run: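 A549 cells carrying an ARE-driven firefly luciferase reporter, in 5% FBS OPTI-MEM, were treated with compounds in concentration-response for 18-24 h at 37°C. Viability was read by CellTiter-Fluor fluorescence, then Nrf2 activity by luciferase luminescence.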
# [8] = qHTS assay for small molecule antagonists of peroxisome proliferator-activated receptor gamma signaling (AID 588537); details: HEK293 PPARg-UAS-bla, beta-lactamase ratio, antagonist mode; measured here: W460 blue channel
# How it was run: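 Inhibitors of agonist-stimulated UAS-bla reporter activity were sought in HEK293 cells; rosiglitazone (50 nM) defined full signal and DMSO baseline. Curves fitted to Hill model gave IC50 and efficacy.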
# [9] = qHTS assay for small molecule antagonists of vitamin D receptor signaling (AID 588541); details: HEK293T VDR-UAS-bla, beta-lactamase ratio, antagonist mode; measured here: W460 blue channel (cell viability)
# [10] = qHTS assay for small molecule agonists of retinoid X receptor alpha signaling (AID 588544); details: HEK293T RXRa-UAS-bla, beta-lactamase reporter, 18 h; 530 nm emission
# [11] = measured here: cell count channel max response
# [12] = measured here: lipid channel max response
structure (smiles),measurement,setting,value
C[C@@H](O[C@H]1OCCN(Cc2n[nH]c(=O)[nH]2)[C@H]1c1ccc(F)cc1)c1cc(C(F)(F)F)cc(C(F)(F)F)c1,AC50,[1],"35.5 µM [falling, single point]"
CC(C)CCCC(C)N (stereo not given),AC50,[1],"35.5 µM [rising, single point]"
CS(=O)(=O)N1CCC[C@@]2(CCN(C(c3ccccc3)c3ccccc3)C2)C1,AC50,[2],"10 µM [rising, single point]"
same,AC50,[3]; measured here: lipid (BODIPY) channel AC50,"10 µM [falling, partial curve]"
COC(c1ccccc1)(c1ccccc1)[C@H](Oc1nc(C)cc(C)n1)C(=O)O,AC50,[1],"22.4 µM [rising, single point]"
Oc1cccc(-c2c3nc(c(-c4cccc(O)c4)c4ccc([nH]4)c(-c4cccc(O)c4)c4nc(c(-c5cccc(O)c5)c5ccc2[nH]5)CC4)C=C3)c1,AC50,[1],"2.51 µM [falling, full curve, poor fit]"
CNCC[C@H](Oc1ccccc1OC)c1ccccc1,AC50,[2],"12.6 µM [rising, partial curve, poor fit]"
same,max response,[3]; [11],22.7%
same,max response,[3]; [12],27.3%
Cc1noc(C)c1C(=O)N1CCC[C@@]2(CCN(c3cccc(-c4ccccc4)c3)C2)C1,AC50,[2],"10 µM [rising, single point]"
same,max response,[3]; [11],2.68%
same,max response,[3]; [12],-50.3%
NC(=O)NS(=O)(=O)c1ccc(Cl)cc1,AC50,[1],"35.5 µM [rising, single point]"
O=C(c1cccc(F)c1)N1CCC[C@@]2(CCN(c3cccc(-c4ccccc4)c3)C2)C1,AC50,[2],"3.98 µM [rising, single point]"
same,max response,[3]; [11],-0.63%
same,max response,[3]; [12],-57.7%
OCc1cc([C@@H](O)CNCCCCCCOCCCCc2ccccc2)ccc1O,AC50,[2],"15.8 µM [rising, single point]"
same,max response,[3]; [11],59.4%
same,max response,[3]; [12],75.2%
CC(C)(C)c1cc(C=O)cc(C(C)(C)C)c1O,AC50,[1],"15.8 µM [rising, single point]"
Cc1cc(OI)c(C(C)C)cc1-c1cc(C(C)C)c(OI)cc1C,AC50,[1],"35.5 µM [rising, partial curve, poor fit]"
O=C(Nc1ccc(Cl)cc1)Nc1ccc(Cl)c(C(F)(F)F)c1,AC50,[1],"12.6 µM [falling, partial curve]"
CN(C)CCCN1c2ccccc2CCc2ccccc21,AC50,[1],"22.4 µM [falling, single point]"
NC(=O)c1ncn([C@@H]2O[C@H](CO)[C@@H](O)[C@H]2O)n1,max response,[3]; [11],29%
same,max response,[3]; [12],31.3%
same,max response,[4],2.03%
same,max response,[5],8.49%
O=C(O)Cn1c(C(=O)Nc2nc(-c3ccccc3Cl)cs2)cc2ccccc21,AC50,[1],"11.2 µM [falling, single point]"
CC(C)[C@@H]1CC[C@@H](C)CC1=O,AC50,[1],"35.5 µM [rising, partial curve, poor fit]"
CCOC(=O)c1cc(=O)c2c(OCC(COc3cccc4oc(C(=O)OCC)cc(=O)c34)OC(=O)[C@@H](N)CCCCN)cccc2o1,AC50,[1],"17.8 µM [rising, single point]"
O=C(OCC1OC(OC(=O)c2cc(O)c(O)c(OC(=O)c3cc(O)c(O)c(O)c3)c2)[C@@H](OC(=O)c2cc(O)c(O)c(OC(=O)c3cc(O)c(O)c(O)c3)c2)C(OC(=O)c2cc(O)c(O)c(OC(=O)c3cc(O)c(O)c(O)c3)c2)C1OC(=O)c1cc(O)c(O)c(OC(=O)c2cc(O)c(O)c(O)c2)c1)c1cc(O)c(O)c(OC(=O)c2cc(O)c(O)c(O)c2)c1 (stereo not given in full),max response,[3]; [11],-4.64%
same,max response,[3]; [12],23.8%
same,AC50,[6]; measured here: 460 nm blue channel,"22.4 µM [falling, partial curve]"
O=C(/C=C/c1ccccc1)NCCO,AC50,[1],"22.4 µM [falling, single point]"
Nc1ccc(S(=O)(=O)Nc2ccccc2)cc1,AC50,[1],"15.8 µM [falling, single point]"
COc1cc(COc2cc(N)c(Cl)cc2C(=O)CCC2CCN(CCNS(C)(=O)=O)CC2)cc(OC)c1,AC50,[2],"20 µM [rising, single point]"
same,max response,[3]; [11],98.8%
same,max response,[3]; [12],103%
O=C(O)CN1C(=O)c2cccc3cccc(c23)C1=O,AC50,[2],"15.8 µM [rising, partial curve, poor fit]"
same,max response,[3]; [11],23.8%
same,max response,[3]; [12],30.7%
CC(=O)c1cc2ccccc2s1,AC50,[1],"35.5 µM [rising, single point]"
CCCCCCCCCCCCCCCCCCNC(=O)OC1CCN(C(=O)OC[C@H](COC(=O)N(Cc2cccc[n+]2CC)C(=O)c2ccccc2OC)OC)CC1,AC50,[1],"22.4 µM [falling, single point]"
C[C@@H](CN(C)C)CN1c2ccccc2Sc2ccccc21,AC50,[1],"22.4 µM [falling, single point]"
C#C[C@]1(O)CC[C@H]2[C@@H]3CCc4cc(OC5CCCC5)ccc4[C@H]3CC[C@@]21C,AC50,[1],"22.4 µM [falling, single point]"
O=C(c1ccc(OCCN2CCCCC2)cc1)c1c(-c2ccc(O)cc2)sc2cc(O)ccc12,AC50,[7],"25.9 µM [falling, partial curve, poor fit]"
same,viability change,[7],-22.8%
same,max response,[4],-106%
same,AC50,[8],"50.1 µM [falling, partial curve, poor fit]"
same,AC50,[9],"1.41 µM [rising, full curve, poor fit]"
same,max response,[10],10.1%
same,AC50,[6]; measured here: 530 nm viability channel,"12.6 µM [rising, full curve, poor fit]"
CCCCCCCCCCCCCCCC[n+]1ccccc1,AC50,[9],"35.5 µM [rising, single point]"
Cc1cc2c(C(C)C)c(O)c(O)c(C=O)c2c(O)c1-c1c(C)cc2c(C(C)C)c(O)c(O)c(C=O)c2c1O,max response,[10],-49.6%
CC(=O)Oc1ccccc1C(=O)Nc1ncc([N+](=O)[O-])s1,max response,[5],29.7%

# A second format for part of the listing above.
structure (smiles)	measurement	setting	value
CC(=O)c1cc2ccccc2s1	AC50	[1]	35.5 µM [rising, single point]
CCCCCCCCCCCCCCCCCCNC(=O)OC1CCN(C(=O)OC[C@H](COC(=O)N(Cc2cccc[n+]2CC)C(=O)c2ccccc2OC)OC)CC1	AC50	[1]	22.4 µM [falling, single point]
